Source: PubChem BioAssay AID256 (DTP/NCI, 2004)
The list shows only some results of the screen, not a fair sample: its compounds were picked by chemical class. Other doses and runs of a compound may be missing. T/C: endpoint of the treated group in % of that of the vehicle group. Some doses have a count of surviving animals in place of a T/C: the source files T/C as zero there, which appears to mark a toxic dose or a test without result, not a measured value. Some survivor counts are full or nearly so, which does not show that the dose was tolerated: the source hardly ever lists a survival T/C far under the control, and the zero likely stands for such cases as well. Survivors were counted at the toxicity check, usually on the fifth day, unless a day is given; later deaths do not show. Schedule codes are those of the source, taken here to give the interval after Q, in days (D) or hours (H), and the number of doses after X. Some metal complexes and salts are drawn in pieces, as in the source, so charges may not balance. For survival time, the PubChem record calls one and a half times the control and up active, and a quarter to a half above the control has no call in these data; cut-offs in other NCI protocols can differ. Some doses were run more than once; the values are given in rising order. Some entries show no survivor count and are marked so; the dose need not have been tolerated.

Tested on: CD2F1 mice, L1210 leukemia ip, survival T/C
Experiment: NCI In Vivo Anticancer Drug Screen. Data for tumor model L1210 Leukemia (intraperitoneal) in CD2F1 (CDF1) mice
Conditions: T/C endpoint: mean survival time, higher T/C = longer survival
How it was run: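 Implant tumor; dose compound or vehicle; measure endpoint in both groups; report treated divided by control.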

[1] = dose: 25.0 mg/kg/injection, schedule: Q01DX001 (ip), vehicle: DMSO
[2] = dose: 50.0 mg/kg/injection, schedule: Q01DX001 (ip), vehicle: DMSO
[3] = dose: 100.0 mg/kg/injection, schedule: Q01DX001 (ip), vehicle: DMSO
[4] = dose: 200.0 mg/kg/injection, schedule: Q01DX001 (ip), vehicle: DMSO
[5] = dose: 400.0 mg/kg/injection, schedule: Q01DX001 (ip), vehicle: DMSO
[6] = dose: 100.0 mg/kg/injection, schedule: Q04DX003 (ip), vehicle: saline with Tween-80
[7] = dose: 200.0 mg/kg/injection, schedule: Q04DX003 (ip), vehicle: saline with Tween-80
[8] = dose: 400.0 mg/kg/injection, schedule: Q04DX003 (ip), vehicle: saline with Tween-80
[9] = dose: 62.5 mg/kg/injection, schedule: Q01DX001 (ip), vehicle: distilled water + Tween-80

CN1CC2CC(C1)CN(C)C2.F[P-](F)(F)(F)(F)F
T/C (dose: 100.0 mg/kg/injection, schedule: Q01DX009 (ip), vehicle: saline with Tween-80): 105 % of control | T/C (dose: 200.0 mg/kg/injection, schedule: Q01DX009 (ip), vehicle: saline with Tween-80): 103 % of control | survivor count (dose: 400.0 mg/kg/injection, schedule: Q01DX009 (ip), vehicle: saline with Tween-80): 1 of 6

O=P1(N(CCCl)CCCl)OCCCN1CCCl (stereo unspecified)
T/C (dose: 12.5 mg/kg/injection, schedule: Q01DX001 (ip), vehicle: water): 95 and 103 % of control | T/C [1]: 107 % of control | T/C (dose: 25.0 mg/kg/injection, schedule: Q01DX001 (ip), vehicle: water): 107 and 109 % of control | T/C [2]: 133 % of control | T/C (dose: 50.0 mg/kg/injection, schedule: Q01DX001 (ip), vehicle: water): 128 and 139 % of control | T/C [3]: 234 % of control | T/C (dose: 100.0 mg/kg/injection, schedule: Q01DX001 (ip), vehicle: water): 166 and 175 % of control | T/C [4]: 343 % of control | T/C (dose: 200.0 mg/kg/injection, schedule: Q01DX001 (ip), vehicle: water): 330 and 357 % of control | T/C [5]: 468 % of control

N#CC1=C(C#N)NP(=O)(N(CCCl)CCCl)N1
T/C (dose: 12.5 mg/kg/injection, schedule: Q01DX009 (ip), vehicle: other): 123 % of control | T/C (dose: 25.0 mg/kg/injection, schedule: Q01DX009 (ip), vehicle: other): 105 % of control | T/C (dose: 31.3 mg/kg/injection, schedule: Q01DX001 (ip), vehicle: other): 102 % of control | T/C (dose: 44.0 mg/kg/injection, schedule: Q01DX009 (ip), vehicle: other): 140 % of control | T/C (dose: 50.0 mg/kg/injection, schedule: Q01DX009 (ip), vehicle: other): 112 % of control | T/C (dose: 62.5 mg/kg/injection, schedule: Q01DX001 (ip), vehicle: other): 98 % of control | T/C (dose: 66.0 mg/kg/injection, schedule: Q01DX009 (ip), vehicle: other): 168 % of control | T/C (dose: 100.0 mg/kg/injection, schedule: Q01DX009 (ip), vehicle: other): 126 and 157 % of control | T/C (dose: 125.0 mg/kg/injection, schedule: Q01DX001 (ip), vehicle: other): 96 % of control | T/C (dose: 150.0 mg/kg/injection, schedule: Q01DX009 (ip), vehicle: other): 116 % of control | T/C (dose: 200.0 mg/kg/injection, schedule: Q01DX009 (ip), vehicle: other): 105 % of control | T/C (dose: 250.0 mg/kg/injection, schedule: Q01DX001 (ip), vehicle: other): 104 % of control | survivor count (dose: 500.0 mg/kg/injection, schedule: Q01DX001 (ip), vehicle: other): 3 of 6

CC1CC[P+](c2ccccc2)(c2ccccc2)Cc2ccccc21.F[P-](F)(F)(F)(F)F (stereo unspecified)
T/C (dose: 25.0 mg/kg/injection, schedule: Q04DX002 (ip), vehicle: saline with Tween-80): 93 % of control | T/C (dose: 50.0 mg/kg/injection, schedule: Q04DX002 (ip), vehicle: saline with Tween-80): 96 % of control | T/C (dose: 100.0 mg/kg/injection, schedule: Q04DX002 (ip), vehicle: saline with Tween-80): 104 % of control

CCNP(=O)(OCCCO)N(CCCl)CCCl (stereo unspecified)
T/C [1]: 102 % of control | T/C [2]: 100 % of control | T/C [3]: 108 % of control | T/C [4]: 116 % of control | T/C (dose: 266.0 mg/kg/injection, schedule: Q01DX001 (ip), vehicle: DMSO): 109 % of control | T/C (dose: 400.0 mg/kg/injection, schedule: Q01DX001 (ip), vehicle: DMSO, evaluated on day 25): 114 % of control | T/C (dose: 400.0 mg/kg/injection, schedule: Q01DX001 (ip), vehicle: DMSO, evaluated on day 60): 141 % of control | T/C (dose: 600.0 mg/kg/injection, schedule: Q01DX001 (ip), vehicle: DMSO): 119 % of control | T/C (dose: 900.0 mg/kg/injection, schedule: Q01DX001 (ip), vehicle: DMSO): 123 % of control

O=C(OC1CN2CCC1CC2)c1ccc(O)cc1 (stereo unspecified)
T/C (dose: 6.25 mg/kg/injection, schedule: Q01DX009 (ip), vehicle: saline with Tween-80): 101 % of control | T/C (dose: 12.5 mg/kg/injection, schedule: Q01DX009 (ip), vehicle: saline with Tween-80): 99 % of control | T/C (dose: 25.0 mg/kg/injection, schedule: Q01DX009 (ip), vehicle: saline with Tween-80): 100 % of control | survivor count [6]: 2 of 6 | survivor count [7]: 0 of 6 | survivor count [8]: 0 of 6

Cc1ccc(Nc2c([N+](=O)[O-])cc([N+](=O)[O-])cc2[N+](=O)[O-])cc1C
T/C [6]: 88 % of control | T/C [7]: 89 % of control | T/C [8]: 89 % of control

NP(=O)(OCCCCO)N(CCCl)CCCl (stereo unspecified)
T/C (dose: 12.5 mg/kg/injection, schedule: Q01DX009 (ip), vehicle: water): 91 % of control | T/C (dose: 25.0 mg/kg/injection, schedule: Q01DX009 (ip), vehicle: water): 91 % of control | T/C (dose: 31.3 mg/kg/injection, schedule: Q01DX001 (ip), vehicle: DMSO): 100 % of control | T/C (dose: 50.0 mg/kg/injection, schedule: Q01DX009 (ip), vehicle: water): 86 % of control | T/C (dose: 62.5 mg/kg/injection, schedule: Q01DX001 (ip), vehicle: DMSO): 106 % of control | T/C (dose: 100.0 mg/kg/injection, schedule: Q01DX009 (ip), vehicle: water): 92 % of control | T/C (dose: 125.0 mg/kg/injection, schedule: Q01DX001 (ip), vehicle: DMSO): 102 % of control | T/C (dose: 200.0 mg/kg/injection, schedule: Q01DX009 (ip), vehicle: water): 96 % of control | T/C (dose: 250.0 mg/kg/injection, schedule: Q01DX001 (ip), vehicle: DMSO): 102 % of control | T/C (dose: 500.0 mg/kg/injection, schedule: Q01DX001 (ip), vehicle: DMSO): 100 % of control

COC(CCOP(N)(=O)N(CCCl)CCCl)OC (stereo unspecified)
T/C [1]: 97 % of control | T/C [2]: 94 % of control | T/C [3]: 103 % of control | T/C [4]: 109 % of control | T/C [5]: 120 % of control

O=[N+]([O-])N1CCN([N+](=O)[O-])CC1
T/C (dose: 100.0 mg/kg/injection, schedule: Q01DX001 (ip), vehicle: saline): 100 % of control [survivor count not shown]

NNC(=O)c1cc([N+](=O)[O-])cc([N+](=O)[O-])c1
T/C (dose: 5.0 mg/kg/injection, schedule: Q01DX009 (ip), vehicle: saline with Tween-80): 94 % of control | T/C (dose: 5.0 mg/kg/injection, schedule: Q04DX003 (ip), vehicle: saline with Tween-80): 86 % of control | T/C (dose: 10.0 mg/kg/injection, schedule: Q01DX009 (ip), vehicle: saline with Tween-80): 101 % of control | T/C (dose: 10.0 mg/kg/injection, schedule: Q04DX003 (ip), vehicle: saline with Tween-80): 87 % of control | T/C (dose: 20.0 mg/kg/injection, schedule: Q01DX009 (ip), vehicle: saline with Tween-80): 94 % of control | T/C (dose: 20.0 mg/kg/injection, schedule: Q04DX003 (ip), vehicle: saline with Tween-80): 93 % of control | survivor count [6]: 0 of 6 | survivor count [7]: 0 of 6 | survivor count [8]: 0 of 6

Cc1ccc(NP(=O)(Cl)N(CCCl)CCCl)cc1 (stereo unspecified)
T/C (dose: 7.8 mg/kg/injection, schedule: Q01DX001 (ip), vehicle: distilled water + Tween-80): 103 % of control | T/C (dose: 15.6 mg/kg/injection, schedule: Q01DX001 (ip), vehicle: distilled water + Tween-80): 107 % of control | T/C (dose: 31.3 mg/kg/injection, schedule: Q01DX001 (ip), vehicle: distilled water + Tween-80): 108 % of control | T/C [9]: 108 % of control | survivor count [9]: 6 of 6 | T/C (dose: 125.0 mg/kg/injection, schedule: Q01DX001 (ip), vehicle: distilled water + Tween-80): 96 and 107 % of control | survivor count (dose: 250.0 mg/kg/injection, schedule: Q01DX001 (ip), vehicle: distilled water + Tween-80): 6 of 6 | survivor count (dose: 500.0 mg/kg/injection, schedule: Q01DX001 (ip), vehicle: distilled water + Tween-80): 6 of 6

COc1ccc(C(O)(C(=O)OCCN2CCCCC2)c2ccc(OC)cc2)cc1
T/C (dose: 75.0 mg/kg/injection, schedule: Q01DX001 (ip), vehicle: saline): 98 % of control
